# Data: PubChem BioAssay AID2685 (National Center for Advancing Translational Sciences (NCATS), 2010)
# The other results are listed elsewhere or left out. Shown are side measurements of this screen, not its main read-out; they come without a call. Compounds called inactive in the main read-out are mostly missing here. Potencies come from curve fits of mixed quality, noted in brackets.
# Test: qHTS Assay for Lipid Storage Modulators in Drosophila S3 Cells;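 for cell number change: cells counted by Cell Tracker Red CMTPX staining in the red channel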
# Conditions: BODIPY lipid droplet fluorescence, 18-24 h; for cell number change: measured here: cell count max response, cells fed with added oleic acid
# Procedure, shortened: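 Drosophila S3 cells got compounds at several concentrations plus oleic acid (400 uM solution). Laser-scanning cytometry with 488 nm excitation read lipid droplets at 500-530 nm and cells at 575-640 nm. Percent activity was relative to 20 uM Triacsin C.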
# [1] = measured here: cell number channel AC50, cells fed with added oleic acid
# [2] = measured here: lipid fluorescence (Fed channel) AC50, cells fed with added oleic acid
smiles,measurement,setting,value
CN(c1ccc(C(=O)NCC2CCCO2)cc1)S(C)(=O)=O (configuration not stated),cell number change,,-82.7%
same,AC50,[1],"32.6 µM [falling, partial curve, poor fit]"
COc1ccc2nc(N3C(=O)CNC3=S)sc2c1,cell number change,,-22.1%
same,AC50,[2],"13 µM [falling, partial curve, poor fit]"
Clc1ccc(NCc2cccnc2)cc1,cell number change,,22.8%
same,AC50,[2],"7.31 µM [rising, partial curve, poor fit]"
O=C(Nc1cccnc1)c1noc2c1CCCC2,cell number change,,-4.2%
same,AC50,[2],"6.51 µM [rising, single point]"
N#C/C(=C\c1ccccn1)c1nc2ccccc2s1,cell number change,,-33.4%
same,AC50,[1],"7.31 µM [falling, partial curve]"
same,AC50,[2],"5.8 µM [falling, full curve]"
O=C(NCSc1ccccc1)c1ccccc1,cell number change,,22.1%
same,AC50,[2],"16.4 µM [rising, partial curve]"
O=C(O)CSCC(=O)Nc1ccc(-c2nc3ccccc3s2)cc1,cell number change,,-12.4%
same,AC50,[1],"0.00731 µM [falling, full curve, poor fit]"
same,AC50,[2],"0.082 µM [falling, full curve, poor fit]"
COc1ccc(NC(=O)C2=Cc3cccc(OC)c3OC2)cc1,cell number change,,18.5%
same,AC50,[2],"3.66 µM [falling, single point]"
CC(C(=O)Nc1ccc(S(N)(=O)=O)cc1)N1CCc2ccccc21 (configuration not stated),cell number change,,6.01%
Cc1ccsc1/C=N/n1c(COc2ccccc2)n[nH]c1=S,cell number change,,-40.5%
same,AC50,[1],"14.6 µM [falling, single point]"
same,AC50,[2],"16.4 µM [falling, single point]"
CN1c2ccccc2-c2nc3ccccc3n2C1c1ccncc1 (configuration not stated),cell number change,,15.6%
same,AC50,[2],"0.58 µM [rising, full curve]"
NNC(=O)[C@H]1C[C@@H]1c1ccccc1,cell number change,,-8.56%
same,AC50,[2],"6.51 µM [rising, single point]"
O=C(Nc1ccc(C(=O)N2CCC(N3CCOCC3)CC2)cc1)c1ccc(Br)o1,cell number change,,10.6%
same,AC50,[2],"29.1 µM [rising, single point]"
Cc1ccc(NC(=O)/C(C#N)=C/c2cc(C)n(-c3ccc(N4CCOCC4)c([N+](=O)[O-])c3)c2C)c(C)c1,cell number change,,-10.4%
same,AC50,[2],"4.61 µM [falling, single point]"
CC(=O)Nc1nonc1-c1nc2ccccc2n1CC1CC1,cell number change,,-6.71%
same,AC50,[2],"2.06 µM [rising, full curve]"
O=C(COc1cccc(Br)c1)N/N=C1\CCCc2ccccc21,cell number change,,25%
same,AC50,[1],"0.231 µM [rising, full curve, poor fit]"
same,AC50,[2],"20.6 µM [rising, partial curve]"
Cc1c(C(=O)N2CCN(Cc3ccc4c(c3)OCO4)CC2)cccc1[N+](=O)[O-],cell number change,,-13.2%
same,AC50,[1],"6.51 µM [rising, single point]"

# 2 records drawn at random from those above, as already listed:
smiles,measurement,setting,value
COc1ccc2nc(N3C(=O)CNC3=S)sc2c1,cell number change,,-22.1%
N#C/C(=C\c1ccccn1)c1nc2ccccc2s1,cell number change,,-33.4%
